In the supplement of paper PMC12823440, “Inhibitors supercharge kinase turnover through native proteolytic circuits” (Nature, 2025):
Counter-ions that a name gives are not always drawn. The list shows a part of the results. Hit calls seldom repeat between salt and free forms of one compound.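 In K562 cells expressing nanoluciferase-fused kinases, luminescence was recorded at 4 h intervals between 2 and 18 h, normalized as percent of control with DMSO at 100% and a positive control at 0%. A significant (2 sigma) signal drop marks a time point as decreased. The authors' rule for a hit is not shown and takes in more than the number of time points.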

Amino acid sequences for entries named in this document (tags omitted). A change or cut given only in a name is not applied to a line headed by its entry.
UniProt P00519, whole entry: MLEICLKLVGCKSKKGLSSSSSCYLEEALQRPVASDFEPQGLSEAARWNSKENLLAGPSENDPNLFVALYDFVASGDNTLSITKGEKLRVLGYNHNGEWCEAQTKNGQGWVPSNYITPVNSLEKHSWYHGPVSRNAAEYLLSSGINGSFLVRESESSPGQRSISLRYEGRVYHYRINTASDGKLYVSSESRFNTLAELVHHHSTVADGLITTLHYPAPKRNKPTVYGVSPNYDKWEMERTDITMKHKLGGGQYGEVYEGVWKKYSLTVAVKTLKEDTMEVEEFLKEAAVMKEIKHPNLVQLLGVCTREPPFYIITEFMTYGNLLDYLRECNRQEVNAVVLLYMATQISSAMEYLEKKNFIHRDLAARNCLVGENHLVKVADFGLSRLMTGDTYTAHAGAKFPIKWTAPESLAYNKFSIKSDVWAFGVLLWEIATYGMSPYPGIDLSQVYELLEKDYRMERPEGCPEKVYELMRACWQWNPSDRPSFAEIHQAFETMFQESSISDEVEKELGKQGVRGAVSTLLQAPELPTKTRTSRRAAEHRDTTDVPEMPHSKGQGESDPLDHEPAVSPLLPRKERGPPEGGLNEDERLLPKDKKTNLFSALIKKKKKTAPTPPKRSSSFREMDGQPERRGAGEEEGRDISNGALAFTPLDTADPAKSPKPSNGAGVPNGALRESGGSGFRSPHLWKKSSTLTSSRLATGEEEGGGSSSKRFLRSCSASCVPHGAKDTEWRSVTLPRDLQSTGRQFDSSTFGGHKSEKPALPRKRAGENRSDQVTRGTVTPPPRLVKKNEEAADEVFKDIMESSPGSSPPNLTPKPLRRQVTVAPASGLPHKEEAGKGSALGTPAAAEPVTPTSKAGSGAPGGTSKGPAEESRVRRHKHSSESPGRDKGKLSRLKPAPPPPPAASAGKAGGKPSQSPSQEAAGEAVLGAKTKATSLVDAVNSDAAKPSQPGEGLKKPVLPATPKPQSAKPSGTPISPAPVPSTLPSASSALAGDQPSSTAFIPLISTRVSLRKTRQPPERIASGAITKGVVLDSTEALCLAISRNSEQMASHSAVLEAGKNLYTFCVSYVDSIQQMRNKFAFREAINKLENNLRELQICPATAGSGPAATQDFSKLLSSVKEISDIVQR
UniProt P31749: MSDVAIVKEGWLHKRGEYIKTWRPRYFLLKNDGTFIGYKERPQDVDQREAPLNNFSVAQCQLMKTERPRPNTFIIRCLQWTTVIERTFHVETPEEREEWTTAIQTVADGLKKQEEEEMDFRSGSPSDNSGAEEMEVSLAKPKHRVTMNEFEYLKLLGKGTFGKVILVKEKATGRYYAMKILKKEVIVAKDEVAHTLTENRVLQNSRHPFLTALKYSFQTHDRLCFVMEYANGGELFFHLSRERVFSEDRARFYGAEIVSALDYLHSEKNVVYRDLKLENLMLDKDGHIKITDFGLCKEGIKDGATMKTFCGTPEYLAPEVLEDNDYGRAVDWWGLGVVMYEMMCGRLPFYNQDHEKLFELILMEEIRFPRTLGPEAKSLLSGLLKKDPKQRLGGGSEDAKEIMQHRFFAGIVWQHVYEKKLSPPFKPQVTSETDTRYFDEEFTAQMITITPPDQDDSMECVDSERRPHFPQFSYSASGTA
UniProt P10398: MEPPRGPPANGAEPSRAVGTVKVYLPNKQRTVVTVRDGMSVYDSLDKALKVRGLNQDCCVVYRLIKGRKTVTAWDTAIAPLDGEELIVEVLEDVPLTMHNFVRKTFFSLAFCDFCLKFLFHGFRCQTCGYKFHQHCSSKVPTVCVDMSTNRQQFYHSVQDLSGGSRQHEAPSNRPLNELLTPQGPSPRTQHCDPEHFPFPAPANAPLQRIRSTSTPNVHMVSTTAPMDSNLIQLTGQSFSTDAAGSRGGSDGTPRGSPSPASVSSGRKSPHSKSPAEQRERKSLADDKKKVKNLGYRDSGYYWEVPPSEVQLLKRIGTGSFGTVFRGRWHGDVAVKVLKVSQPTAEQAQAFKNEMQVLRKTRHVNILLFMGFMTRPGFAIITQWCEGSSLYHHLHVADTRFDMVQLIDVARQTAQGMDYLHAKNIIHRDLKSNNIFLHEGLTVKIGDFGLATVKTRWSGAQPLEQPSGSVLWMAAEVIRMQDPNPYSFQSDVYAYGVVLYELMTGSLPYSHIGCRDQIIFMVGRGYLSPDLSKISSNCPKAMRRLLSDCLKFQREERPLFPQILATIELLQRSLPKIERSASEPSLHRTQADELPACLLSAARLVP
UniProt O14965: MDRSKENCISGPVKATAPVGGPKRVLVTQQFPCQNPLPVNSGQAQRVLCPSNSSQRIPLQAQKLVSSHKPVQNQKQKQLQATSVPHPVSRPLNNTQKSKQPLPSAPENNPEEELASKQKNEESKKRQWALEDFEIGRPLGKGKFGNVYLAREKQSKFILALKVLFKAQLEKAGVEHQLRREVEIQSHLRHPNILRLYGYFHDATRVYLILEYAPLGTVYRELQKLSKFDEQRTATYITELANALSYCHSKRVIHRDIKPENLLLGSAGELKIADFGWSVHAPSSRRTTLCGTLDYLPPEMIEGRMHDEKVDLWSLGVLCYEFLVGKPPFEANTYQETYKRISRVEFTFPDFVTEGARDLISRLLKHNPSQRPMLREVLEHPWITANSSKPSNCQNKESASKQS
UniProt Q96GD4, whole entry: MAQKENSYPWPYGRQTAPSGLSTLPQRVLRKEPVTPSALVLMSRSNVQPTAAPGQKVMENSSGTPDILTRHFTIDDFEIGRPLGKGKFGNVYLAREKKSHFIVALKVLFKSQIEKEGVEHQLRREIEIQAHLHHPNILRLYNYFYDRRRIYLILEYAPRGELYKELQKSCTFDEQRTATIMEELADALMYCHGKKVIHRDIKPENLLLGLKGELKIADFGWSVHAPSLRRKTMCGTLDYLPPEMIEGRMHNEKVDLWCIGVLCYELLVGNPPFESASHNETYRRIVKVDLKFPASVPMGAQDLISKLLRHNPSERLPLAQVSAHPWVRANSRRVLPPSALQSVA
UniProt P51813: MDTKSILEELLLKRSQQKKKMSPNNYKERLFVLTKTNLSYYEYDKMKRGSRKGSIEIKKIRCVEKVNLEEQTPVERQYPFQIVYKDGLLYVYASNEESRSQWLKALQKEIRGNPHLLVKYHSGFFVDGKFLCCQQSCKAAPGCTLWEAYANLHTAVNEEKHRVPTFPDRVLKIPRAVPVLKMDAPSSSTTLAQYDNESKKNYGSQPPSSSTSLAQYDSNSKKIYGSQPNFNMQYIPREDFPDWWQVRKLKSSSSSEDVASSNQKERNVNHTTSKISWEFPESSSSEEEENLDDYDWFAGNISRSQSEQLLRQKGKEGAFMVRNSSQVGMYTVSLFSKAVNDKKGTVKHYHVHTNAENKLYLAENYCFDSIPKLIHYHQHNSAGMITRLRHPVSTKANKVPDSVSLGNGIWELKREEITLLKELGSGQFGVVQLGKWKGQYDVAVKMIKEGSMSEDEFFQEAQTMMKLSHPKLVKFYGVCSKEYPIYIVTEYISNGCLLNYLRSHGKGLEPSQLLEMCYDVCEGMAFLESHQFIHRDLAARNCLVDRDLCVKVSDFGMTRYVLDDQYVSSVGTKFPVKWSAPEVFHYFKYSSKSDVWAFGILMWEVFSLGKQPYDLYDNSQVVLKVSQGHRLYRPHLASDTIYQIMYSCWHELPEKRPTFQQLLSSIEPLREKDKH
UniProt P15056, whole entry, looked up: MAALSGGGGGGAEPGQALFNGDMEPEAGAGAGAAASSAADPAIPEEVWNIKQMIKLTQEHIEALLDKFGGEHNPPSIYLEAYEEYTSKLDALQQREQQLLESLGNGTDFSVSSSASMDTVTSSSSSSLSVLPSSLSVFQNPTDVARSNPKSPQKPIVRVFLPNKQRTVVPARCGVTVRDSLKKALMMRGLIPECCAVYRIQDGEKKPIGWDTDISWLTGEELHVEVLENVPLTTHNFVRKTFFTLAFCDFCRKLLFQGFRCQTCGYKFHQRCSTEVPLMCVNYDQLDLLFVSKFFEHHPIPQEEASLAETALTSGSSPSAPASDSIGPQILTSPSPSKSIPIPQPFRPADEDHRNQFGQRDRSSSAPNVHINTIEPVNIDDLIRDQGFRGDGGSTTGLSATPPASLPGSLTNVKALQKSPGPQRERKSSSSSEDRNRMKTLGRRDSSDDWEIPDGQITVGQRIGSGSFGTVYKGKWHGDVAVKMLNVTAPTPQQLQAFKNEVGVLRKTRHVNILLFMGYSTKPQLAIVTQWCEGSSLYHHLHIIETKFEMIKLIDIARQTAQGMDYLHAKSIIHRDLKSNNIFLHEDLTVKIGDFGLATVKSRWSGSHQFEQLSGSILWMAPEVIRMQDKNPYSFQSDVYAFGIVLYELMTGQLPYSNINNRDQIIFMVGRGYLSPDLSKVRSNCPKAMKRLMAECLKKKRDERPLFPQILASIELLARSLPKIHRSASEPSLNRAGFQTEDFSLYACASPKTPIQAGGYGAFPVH
UniProt Q9UQM7, whole entry: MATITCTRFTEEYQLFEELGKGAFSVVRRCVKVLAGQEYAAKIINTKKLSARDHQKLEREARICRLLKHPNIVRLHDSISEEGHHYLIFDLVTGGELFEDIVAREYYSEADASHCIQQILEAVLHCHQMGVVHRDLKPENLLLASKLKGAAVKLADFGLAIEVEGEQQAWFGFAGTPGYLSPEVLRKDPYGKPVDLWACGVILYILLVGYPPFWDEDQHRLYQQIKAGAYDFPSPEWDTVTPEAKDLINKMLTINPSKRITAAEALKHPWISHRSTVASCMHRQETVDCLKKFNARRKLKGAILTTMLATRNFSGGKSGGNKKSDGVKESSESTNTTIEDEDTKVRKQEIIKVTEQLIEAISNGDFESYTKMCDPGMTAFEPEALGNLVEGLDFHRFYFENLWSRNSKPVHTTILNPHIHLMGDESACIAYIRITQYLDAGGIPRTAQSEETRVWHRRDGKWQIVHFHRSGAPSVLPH
UniProt Q15131: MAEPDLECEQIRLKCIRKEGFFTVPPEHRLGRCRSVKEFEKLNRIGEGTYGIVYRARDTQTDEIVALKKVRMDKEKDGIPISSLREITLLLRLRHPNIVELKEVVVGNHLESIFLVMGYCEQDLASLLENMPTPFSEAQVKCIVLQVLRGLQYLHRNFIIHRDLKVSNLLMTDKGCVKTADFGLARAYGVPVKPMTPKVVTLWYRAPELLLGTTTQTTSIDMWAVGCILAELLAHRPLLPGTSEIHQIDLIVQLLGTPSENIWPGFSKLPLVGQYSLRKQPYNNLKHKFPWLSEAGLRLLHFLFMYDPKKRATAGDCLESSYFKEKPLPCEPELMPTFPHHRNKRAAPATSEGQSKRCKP
UniProt Q00526: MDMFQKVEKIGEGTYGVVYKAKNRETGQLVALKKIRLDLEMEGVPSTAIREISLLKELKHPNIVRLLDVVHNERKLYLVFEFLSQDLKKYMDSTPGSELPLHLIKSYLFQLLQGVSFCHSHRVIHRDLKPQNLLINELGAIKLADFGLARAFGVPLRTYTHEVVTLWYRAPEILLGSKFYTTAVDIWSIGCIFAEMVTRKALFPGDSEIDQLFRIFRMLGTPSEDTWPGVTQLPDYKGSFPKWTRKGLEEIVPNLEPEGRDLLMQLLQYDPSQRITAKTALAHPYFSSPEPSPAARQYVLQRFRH
UniProt P11802: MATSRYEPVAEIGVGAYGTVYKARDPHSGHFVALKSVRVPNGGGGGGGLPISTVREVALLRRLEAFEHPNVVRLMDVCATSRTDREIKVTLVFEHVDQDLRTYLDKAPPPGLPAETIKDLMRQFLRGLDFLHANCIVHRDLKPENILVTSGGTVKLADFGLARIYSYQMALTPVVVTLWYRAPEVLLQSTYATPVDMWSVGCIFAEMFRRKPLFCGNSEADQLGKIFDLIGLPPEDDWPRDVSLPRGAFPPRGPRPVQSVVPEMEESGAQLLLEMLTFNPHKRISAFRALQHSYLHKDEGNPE
UniProt Q00535, whole entry, looked up: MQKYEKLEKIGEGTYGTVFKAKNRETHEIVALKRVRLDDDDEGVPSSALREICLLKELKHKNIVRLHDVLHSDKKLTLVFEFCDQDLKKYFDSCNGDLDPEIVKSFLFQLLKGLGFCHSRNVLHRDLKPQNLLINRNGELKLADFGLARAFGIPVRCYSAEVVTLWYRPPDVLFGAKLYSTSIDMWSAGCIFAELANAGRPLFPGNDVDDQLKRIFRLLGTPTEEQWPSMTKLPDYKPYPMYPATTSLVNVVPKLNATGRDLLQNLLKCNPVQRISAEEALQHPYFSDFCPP
UniProt Q00534, whole entry: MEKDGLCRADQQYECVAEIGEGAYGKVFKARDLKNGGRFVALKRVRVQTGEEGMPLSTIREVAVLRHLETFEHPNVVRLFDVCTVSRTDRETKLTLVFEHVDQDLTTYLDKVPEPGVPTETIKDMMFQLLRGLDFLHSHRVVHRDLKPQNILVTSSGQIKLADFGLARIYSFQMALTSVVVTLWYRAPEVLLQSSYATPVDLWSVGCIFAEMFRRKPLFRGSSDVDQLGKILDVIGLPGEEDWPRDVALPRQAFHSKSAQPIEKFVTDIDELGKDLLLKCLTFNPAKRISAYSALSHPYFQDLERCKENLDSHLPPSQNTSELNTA

What was measured:
Assay in all cases: kinase-Nluc reporter destabilization hit call (1 = scored as downregulated) (binary); higher = compound decreases kinase abundance
Conditions in all cases: K562; 2-18 h
ABL1 = ABL1 (UniProt P00519)
AKT1 = AKT1 (UniProt P31749)
ALK = ALK (UniProt Q9UM73)
ARAF = ARAF (UniProt P10398)
AURKA = AURKA (UniProt O14965)
AURKB = AURKB (UniProt Q96GD4)
AURKC = AURKC (UniProt Q9UQB9)
BLK = BLK (UniProt P51451)
BMX = BMX (UniProt P51813)
BRAF = BRAF (UniProt P15056)
BRAF_V600E = system: BRAF_V600E
BTK = BTK (UniProt Q06187)
CAMK2A = CAMK2A (UniProt Q9UQM7)
CAMK2G = CAMK2G (UniProt Q13555)
CDK10 = CDK10 (UniProt Q15131)
CDK2 = CDK2 (UniProt P24941)
CDK3 = CDK3 (UniProt Q00526)
CDK4 = CDK4 (UniProt P11802)
CDK5 = CDK5 (UniProt Q00535)
CDK6 = CDK6 (UniProt Q00534)

Compound | kinase-Nluc reporter destabilization hit call (ABL1) | kinase-Nluc reporter destabilization hit call (AKT1) | kinase-Nluc reporter destabilization hit call (ALK) | kinase-Nluc reporter destabilization hit call (ARAF) | kinase-Nluc reporter destabilization hit call (AURKA) | kinase-Nluc reporter destabilization hit call (AURKB) | kinase-Nluc reporter destabilization hit call (AURKC) | kinase-Nluc reporter destabilization hit call (BLK) | kinase-Nluc reporter destabilization hit call (BMX) | kinase-Nluc reporter destabilization hit call (BRAF) | kinase-Nluc reporter destabilization hit call (BRAF_V600E) | kinase-Nluc reporter destabilization hit call (BTK) | kinase-Nluc reporter destabilization hit call (CAMK2A) | kinase-Nluc reporter destabilization hit call (CAMK2G) | kinase-Nluc reporter destabilization hit call (CDK10) | kinase-Nluc reporter destabilization hit call (CDK2) | kinase-Nluc reporter destabilization hit call (CDK3) | kinase-Nluc reporter destabilization hit call (CDK4) | kinase-Nluc reporter destabilization hit call (CDK5) | kinase-Nluc reporter destabilization hit call (CDK6)
Cc1ccc(S(=O)(=O)Nc2nc3ccccc3nc2Nc2ccc3nsnc3c2)cc1 [Pilaralisib analogue] (10 µM) | inactive: 0 | inactive: 0 | inactive: 0 | inactive: 0 | inactive: 0 | inactive: 0 | inactive: 0 | inactive: 0 | inactive: 0 | active: 1 | inactive: 0 | inactive: 0 | inactive: 0 | inactive: 0 | active: 1 | inactive: 0 | inactive: 0 | inactive: 0 | inactive: 0 | inactive: 0
C=CC(=O)N1CC[C@H](n2nc(C#Cc3cc(OC)cc(OC)c3)c3c(N)ncnc32)C1 [Futibatinib] (10 µM) | inactive: 0 | inactive: 0 | inactive: 0 | inactive: 0 | inactive: 0 | inactive: 0 | inactive: 0 | inactive: 0 | inactive: 0 | inactive: 0 | inactive: 0 | inactive: 0 | inactive: 0 | inactive: 0 | inactive: 0 | inactive: 0 | inactive: 0 | inactive: 0 | inactive: 0 | inactive: 0
COc1cc(OC)cc(-c2cc3cnc(N)nc3nc2NC(=O)NC(C)(C)C)c1 (10 µM) | inactive: 0 | inactive: 0 | inactive: 0 | inactive: 0 | inactive: 0 | inactive: 0 | inactive: 0 | inactive: 0 | inactive: 0 | inactive: 0 | inactive: 0 | inactive: 0 | inactive: 0 | inactive: 0 | inactive: 0 | inactive: 0 | inactive: 0 | inactive: 0 | inactive: 0 | inactive: 0
O=S(=O)(NCCNC/C=C/c1ccc(Br)cc1)c1cccc2cnccc12 [H-89 (dihydrochloride)] (10 µM) | inactive: 0 | inactive: 0 | inactive: 0 | inactive: 0 | inactive: 0 | inactive: 0 | inactive: 0 | inactive: 0 | inactive: 0 | inactive: 0 | inactive: 0 | inactive: 0 | inactive: 0 | inactive: 0 | inactive: 0 | inactive: 0 | inactive: 0 | inactive: 0 | inactive: 0 | inactive: 0
CN1CCC(Nc2ncc3ncnc(Nc4ccc(F)c(Cl)c4)c3n2)CC1 [Falnidamol] (10 µM) | inactive: 0 | inactive: 0 | inactive: 0 | inactive: 0 | inactive: 0 | inactive: 0 | inactive: 0 | inactive: 0 | inactive: 0 | inactive: 0 | inactive: 0 | inactive: 0 | inactive: 0 | inactive: 0 | inactive: 0 | inactive: 0 | inactive: 0 | inactive: 0 | inactive: 0 | inactive: 0
O=c1oc2ccccc2c(O)c1Cc1c(O)c2ccccc2oc1=O [Dicoumarol] (10 µM) | inactive: 0 | inactive: 0 | inactive: 0 | inactive: 0 | inactive: 0 | inactive: 0 | inactive: 0 | inactive: 0 | inactive: 0 | inactive: 0 | inactive: 0 | inactive: 0 | inactive: 0 | inactive: 0 | inactive: 0 | inactive: 0 | inactive: 0 | inactive: 0 | inactive: 0 | inactive: 0
Nc1ncnc2c1c(-c1ccc(Oc3ccccc3)cc1)cn2C1CCCC1 (2.5 µM) | inactive: 0 | inactive: 0 | inactive: 0 | inactive: 0 | inactive: 0 | inactive: 0 | inactive: 0 | inactive: 0 | inactive: 0 | inactive: 0 | inactive: 0 | inactive: 0 | inactive: 0 | inactive: 0 | inactive: 0 | inactive: 0 | inactive: 0 | inactive: 0 | inactive: 0 | inactive: 0
CNC(=O)c1ccccc1Nc1nc(Nc2ccc(N3CCOCC3)cc2OC)ncc1Cl (2.5 µM) | inactive: 0 | inactive: 0 | inactive: 0 | inactive: 0 | inactive: 0 | inactive: 0 | inactive: 0 | inactive: 0 | inactive: 0 | inactive: 0 | inactive: 0 | inactive: 0 | inactive: 0 | inactive: 0 | inactive: 0 | inactive: 0 | inactive: 0 | inactive: 0 | inactive: 0 | inactive: 0
O=c1cc(-c2ccccc2)oc2c(O)c(O)ccc12 [7,8-Dihydroxyflavone] (10 µM) | inactive: 0 | inactive: 0 | inactive: 0 | inactive: 0 | inactive: 0 | inactive: 0 | inactive: 0 | inactive: 0 | inactive: 0 | inactive: 0 | inactive: 0 | inactive: 0 | inactive: 0 | inactive: 0 | inactive: 0 | inactive: 0 | inactive: 0 | inactive: 0 | inactive: 0 | inactive: 0
Cc1cc(C(=O)Nc2cccc(C(=O)Nc3cccc(C(F)(F)F)c3)c2)on1 (10 µM) | inactive: 0 | inactive: 0 | inactive: 0 | inactive: 0 | inactive: 0 | inactive: 0 | inactive: 0 | inactive: 0 | inactive: 0 | inactive: 0 | inactive: 0 | inactive: 0 | inactive: 0 | inactive: 0 | inactive: 0 | inactive: 0 | inactive: 0 | inactive: 0 | inactive: 0 | inactive: 0
C=CC(=O)Nc1ccc2ncnc(Nc3cccc(Br)c3)c2c1 (10 µM) | inactive: 0 | inactive: 0 | inactive: 0 | inactive: 0 | inactive: 0 | inactive: 0 | inactive: 0 | inactive: 0 | inactive: 0 | inactive: 0 | inactive: 0 | inactive: 0 | inactive: 0 | inactive: 0 | inactive: 0 | inactive: 0 | inactive: 0 | inactive: 0 | inactive: 0 | inactive: 0
CC(C)(C)S(=O)(=O)c1cc2c(Nc3ccc4scnc4c3)ncnc2cc1OCCO (2.5 µM) | inactive: 0 | inactive: 0 | inactive: 0 | inactive: 0 | inactive: 0 | inactive: 0 | inactive: 0 | inactive: 0 | inactive: 0 | inactive: 0 | inactive: 0 | inactive: 0 | inactive: 0 | inactive: 0 | inactive: 0 | inactive: 0 | inactive: 0 | inactive: 0 | inactive: 0 | inactive: 0
O=C([O-])c1ccccc1O.[Na+] [Sodium Salicylate] (10 µM) | inactive: 0 | inactive: 0 | inactive: 0 | inactive: 0 | inactive: 0 | inactive: 0 | inactive: 0 | inactive: 0 | inactive: 0 | inactive: 0 | inactive: 0 | inactive: 0 | inactive: 0 | inactive: 0 | inactive: 0 | inactive: 0 | inactive: 0 | inactive: 0 | inactive: 0 | inactive: 0
O=C(c1ccc(-c2ccc(Cl)cc2)o1)N(Cc1ccccn1)c1ccc(N2CCNCC2)cc1 [MK2-IN-1 (hydrochloride)] (10 µM) | inactive: 0 | inactive: 0 | inactive: 0 | inactive: 0 | inactive: 0 | inactive: 0 | inactive: 0 | inactive: 0 | inactive: 0 | inactive: 0 | inactive: 0 | inactive: 0 | inactive: 0 | inactive: 0 | active: 1 | inactive: 0 | inactive: 0 | inactive: 0 | inactive: 0 | inactive: 0
COc1cc2ncn(-c3cc(OCc4ccccc4C(F)(F)F)c(C(N)=O)s3)c2cc1OC (10 µM) | inactive: 0 | inactive: 0 | inactive: 0 | inactive: 0 | inactive: 0 | inactive: 0 | inactive: 0 | inactive: 0 | inactive: 0 | inactive: 0 | inactive: 0 | inactive: 0 | inactive: 0 | inactive: 0 | inactive: 0 | inactive: 0 | inactive: 0 | inactive: 0 | inactive: 0 | inactive: 0
CC(C)CC(=O)Nc1n[nH]c2c1CN(C(=O)C1CCN(C)CC1)C2(C)C (2.5 µM) | inactive: 0 | inactive: 0 | inactive: 0 | inactive: 0 | inactive: 0 | inactive: 0 | inactive: 0 | inactive: 0 | inactive: 0 | inactive: 0 | inactive: 0 | inactive: 0 | inactive: 0 | inactive: 0 | inactive: 0 | inactive: 0 | inactive: 0 | inactive: 0 | inactive: 0 | inactive: 0
CCOc1cc2ncc(C#N)c(Nc3ccc(OCc4ccccn4)c(Cl)c3)c2cc1NC(=O)/C=C/CN(C)C [Neratinib] (10 µM) | inactive: 0 | inactive: 0 | inactive: 0 | inactive: 0 | inactive: 0 | inactive: 0 | inactive: 0 | inactive: 0 | inactive: 0 | inactive: 0 | inactive: 0 | inactive: 0 | inactive: 0 | inactive: 0 | inactive: 0 | inactive: 0 | inactive: 0 | inactive: 0 | inactive: 0 | inactive: 0

Some of the entries above, reformatted:

| Compound | kinase-Nluc reporter destabilization hit call (ABL1) | kinase-Nluc reporter destabilization hit call (AKT1) | kinase-Nluc reporter destabilization hit call (ALK) | kinase-Nluc reporter destabilization hit call (ARAF) | kinase-Nluc reporter destabilization hit call (AURKA) | kinase-Nluc reporter destabilization hit call (AURKB) | kinase-Nluc reporter destabilization hit call (AURKC) | kinase-Nluc reporter destabilization hit call (BLK) | kinase-Nluc reporter destabilization hit call (BMX) | kinase-Nluc reporter destabilization hit call (BRAF) | kinase-Nluc reporter destabilization hit call (BRAF_V600E) | kinase-Nluc reporter destabilization hit call (BTK) | kinase-Nluc reporter destabilization hit call (CAMK2A) | kinase-Nluc reporter destabilization hit call (CAMK2G) | kinase-Nluc reporter destabilization hit call (CDK10) | kinase-Nluc reporter destabilization hit call (CDK2) | kinase-Nluc reporter destabilization hit call (CDK3) | kinase-Nluc reporter destabilization hit call (CDK4) | kinase-Nluc reporter destabilization hit call (CDK5) | kinase-Nluc reporter destabilization hit call (CDK6) |
| --- | --- | --- | --- | --- | --- | --- | --- | --- | --- | --- | --- | --- | --- | --- | --- | --- | --- | --- | --- | --- |
| O=S(=O)(NCCNC/C=C/c1ccc(Br)cc1)c1cccc2cnccc12 [H-89 (dihydrochloride)] (10 µM) | inactive: 0 | inactive: 0 | inactive: 0 | inactive: 0 | inactive: 0 | inactive: 0 | inactive: 0 | inactive: 0 | inactive: 0 | inactive: 0 | inactive: 0 | inactive: 0 | inactive: 0 | inactive: 0 | inactive: 0 | inactive: 0 | inactive: 0 | inactive: 0 | inactive: 0 | inactive: 0 |
| CN1CCC(Nc2ncc3ncnc(Nc4ccc(F)c(Cl)c4)c3n2)CC1 [Falnidamol] (10 µM) | inactive: 0 | inactive: 0 | inactive: 0 | inactive: 0 | inactive: 0 | inactive: 0 | inactive: 0 | inactive: 0 | inactive: 0 | inactive: 0 | inactive: 0 | inactive: 0 | inactive: 0 | inactive: 0 | inactive: 0 | inactive: 0 | inactive: 0 | inactive: 0 | inactive: 0 | inactive: 0 |
